The other results are listed elsewhere or left out.

Chains of the proteins cited; added tags and fusions are not shown.
UniProt Q0JBA9, entry or part of it: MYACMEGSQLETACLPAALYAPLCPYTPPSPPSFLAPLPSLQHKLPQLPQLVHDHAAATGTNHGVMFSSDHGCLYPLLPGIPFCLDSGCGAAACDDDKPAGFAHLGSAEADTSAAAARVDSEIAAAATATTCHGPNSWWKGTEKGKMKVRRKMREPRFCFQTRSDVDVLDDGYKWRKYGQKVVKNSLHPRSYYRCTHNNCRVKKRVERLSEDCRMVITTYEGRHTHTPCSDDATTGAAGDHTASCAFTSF

This assay concerns the target OsWRKY34 (Oryza sativa, UniProt Q0JBA9 1-250). The assay can be described thus: protein-binding microarray (RPBM); PBS, 2% BSA, 51.3 ng/ul salmon testes DNA, 50 uM zinc acetate, 200 nM TF, 25 C, 1 h; high values mean tight binding. Particulars: protein: recombinant; tags: N-terminal polyhistidine and DsRed monomer fusion (pET32a); label: CyDye5-dUTP incorporated in the synthesized complementary strand; 3' TTTTT single-stranded linker to array surface; dsDNA, one strand shown. In short, it runs like this:
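A custom Agilent array was converted to double-stranded form by primer extension with Cy5-dUTP and blocked with 2% BSA. Protein at 200 nM in PBS with 2% BSA, salmon testes DNA and 50 µM zinc acetate was applied for 1 h at 25 °C, followed by washing. The proteins were polyhistidine–DsRed N-terminal fusions of transcription factors, expressed in E. coli BL21-CodonPlus and Ni–NTA-purified. The binding signal is per-feature fluorescence intensity (arbitrary units) from an Axon 4000B scanner.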
Regarding “GGTGGTCCAAAGATATGCACTCTCCCATACCCTAACAACACGGAGTCACCTAGTGCAG”, the binding signal was 9020 fluorescence intensity (a.u.). The figure for “GTTATTTTAATTTACTTTGGATCACCCTGATTATCGTTTCCGGAGTCACCTAGTGCAG” is 8020 fluorescence intensity (a.u.). On to “CCTGTTAATATGTTCTCAAGTTTGCTACATGTAATTTTTACGGAGTCACCTAGTGCAG”, for which the binding signal is 11000 fluorescence intensity (a.u.). For “AGGAGTTGTTTTGTTGGCACAATTTGCGAGTTGGATGGGGCGGAGTCACCTAGTGCAG”, the binding signal was 8400 fluorescence intensity (a.u.). In the case of “ATCCTTTTTCCTTGCATGTCTCCTTTTCTGTTGATCATTTCGGAGTCACCTAGTGCAG”, the binding signal was 14700 fluorescence intensity (a.u.). Consider “TAGTTTTTATTTTTCTTTTCTAATGCTTCTTGGGCATAATCGGAGTCACCTAGTGCAG”, for which the binding signal was 9520 fluorescence intensity (a.u.). With “CGACCCCACCGCGAACTCTCCCGTCCTATCCGCAGCGGAGCGGAGTCACCTAGTGCAG”, the binding signal is 10900 fluorescence intensity (a.u.). Regarding “GTCCTCGGCTAATGCCGCCTCGTCGTCGTCTTCCTCCTCGCGGAGTCACCTAGTGCAG”, the binding signal was 8560 fluorescence intensity (a.u.).

For the sequence “ATGGGGTTGTTTGGTTGATGGCTAAGTTTACCATATCTCACGGAGTCACCTAGTGCAG”, the binding signal is 10900 fluorescence intensity (a.u.). Under “GTCTCGTCCTTCATGGTTCGACAACATCGACTCTTCGGCGCGGAGTCACCTAGTGCAG” stands 8480 fluorescence intensity (a.u.); under “TTGTCTCATTGCCAGTGTAAATCCCCTGAGGAATCTAGTACGGAGTCACCTAGTGCAG”, 8690 fluorescence intensity (a.u.).

In the case of “AATGAATATTCCATCTGACCTTGATTTCTTTACTCCTTGACGGAGTCACCTAGTGCAG”, the binding signal was 9470 fluorescence intensity (a.u.). As to “CTTACTATACTATTAATATCCGGTCCCACCTGTCATACACCGGAGTCACCTAGTGCAG”, the binding signal was 8290 fluorescence intensity (a.u.).

Consider “TTCTTTCCATAGTTCCCATGCCTGCAAAATTCAGGAGTTCCGGAGTCACCTAGTGCAG”, for which the binding signal was 8480 fluorescence intensity (a.u.).

For “ACCGTGACTTTGGGAGTATTTCTAGCCGTCCGATCCACAGCGGAGTCACCTAGTGCAG”, the binding signal is 9110 fluorescence intensity (a.u.). In the case of “ACCATTTGTTTCATCCTGGACCATAGCCGCTCATCTTCTCCGGAGTCACCTAGTGCAG”, the binding signal is 8270 fluorescence intensity (a.u.).

As to “CGAGGGACCCGTTGTATCTGGTTTTGGGGTTCAAGGACGACGGAGTCACCTAGTGCAG”, the binding signal is 9540 fluorescence intensity (a.u.). The figure for “TTTTTCGACCATTTTCATCCCTAATCGTGCATATTTGTTCCGGAGTCACCTAGTGCAG” is 8920 fluorescence intensity (a.u.); for “GGCGCAGTCTCCATGCCTCTGGTGATCTTTGTATTCTTTTCGGAGTCACCTAGTGCAG” it is 9440 fluorescence intensity (a.u.). The figure for “CCGACCCGACCGTCTCACCCTGCACGCTGTCGTCCCTCTCCGGAGTCACCTAGTGCAG” is 13800 fluorescence intensity (a.u.); for “GGTGGGCGGCGGCATATCTGGTGGTGGTGGACCGTGCTGCCGGAGTCACCTAGTGCAG” it is 8410 fluorescence intensity (a.u.). “CACTCAAAATCTCTTTCGTGTCCACCTCACCTTGCACCACCGGAGTCACCTAGTGCAG”: the binding signal was 8300 fluorescence intensity (a.u.). Consider “CCAAGCAGTTGGTGGCTCTGTTACGTACTACATGCGCGCGCGGAGTCACCTAGTGCAG”, for which the binding signal is 12000 fluorescence intensity (a.u.).

As for “TTAGCAACCTCTTTGTGGCCTCGACTGCTGACCTGATTTTCGGAGTCACCTAGTGCAG”, the binding signal was 11400 fluorescence intensity (a.u.). Turning to “GTTTCCTTGCTGCCCGGCCGCCTGCCCCTCAACCTCATCGCGGAGTCACCTAGTGCAG”, the binding signal is 11300 fluorescence intensity (a.u.). Take “TGACTTTTTAGCATATGTTTGACCGCTCGTCTTATTCAAACGGAGTCACCTAGTGCAG”: the binding signal was 8220 fluorescence intensity (a.u.).

Consider “GGCCCATTTCGTTGTCCGTCCAGCCGCGCGCCGCCGTGCCCGGAGTCACCTAGTGCAG”, for which the binding signal is 8540 fluorescence intensity (a.u.). For “GTGGTTAAAACTTTTATATACATGTTCTTAGCGATCTAAACGGAGTCACCTAGTGCAG”, the binding signal was 10000 fluorescence intensity (a.u.). As for “CTGCGTCCCGCCGTCGACGAGCTCCTTCGGGTTCATCATGCGGAGTCACCTAGTGCAG”, the binding signal is 10700 fluorescence intensity (a.u.). For “TGGTCGTTTATACACACGTTAGCTTTAGGGTCATGTTGTACGGAGTCACCTAGTGCAG”, the binding signal is 8410 fluorescence intensity (a.u.). For “TCCGCTTTTGCTTTGCTCTGCTCTGCTGTTTCCCTCTCCTCGGAGTCACCTAGTGCAG”, the binding signal is 8900 fluorescence intensity (a.u.). Under “GCTAGCCACTCTCTTACGCAACCCAGTCTGGCCCAATTATCGGAGTCACCTAGTGCAG” stands 9660 fluorescence intensity (a.u.); under “ATATTCTGAATTCAGCATCCGTTCACCTAGTTCGTGTTACCGGAGTCACCTAGTGCAG”, 8910 fluorescence intensity (a.u.). With “ATTTCTCTCTCATATTTCTTCTCTCCTCTCTCCTCTACCTCGGAGTCACCTAGTGCAG”, the binding signal was 9680 fluorescence intensity (a.u.). In the case of “CCATTCCTCTGTTTACCTCTGCTCTGTATACATACTCCGGCGGAGTCACCTAGTGCAG”, the binding signal is 9220 fluorescence intensity (a.u.).

Consider “CGCTCGATAGAATTCTCTCTGCTTCGCCCTTCGCGGTTTACGGAGTCACCTAGTGCAG”, for which the binding signal is 9550 fluorescence intensity (a.u.). On to “AATCTTTTCTTCTTCCTTTCTTTCTCCTCTTCCTTTATATCGGAGTCACCTAGTGCAG”, for which the binding signal is 8540 fluorescence intensity (a.u.). “TTAATTTCGGCTTGGTTTAGTTCACAACTTTTTCTTCAAACGGAGTCACCTAGTGCAG”: the binding signal was 8500 fluorescence intensity (a.u.). The figure for “CTGCGCCTAACTTTGATCGTTCGTCTTATTTGATTTTTTTCGGAGTCACCTAGTGCAG” is 12300 fluorescence intensity (a.u.). Turning to “CCTCTCTCTTTCTAACCATTTTCTTGTTTTGTTGCCTTGCCGGAGTCACCTAGTGCAG”, the binding signal is 10900 fluorescence intensity (a.u.). For “TTTTCAGGTGTGGGATTCGTAATGGTAAATATTGTTCTCCCGGAGTCACCTAGTGCAG”, the binding signal was 9970 fluorescence intensity (a.u.). Under “TGGAGCGGCGGCGTTGGGTGGGTCGGCGGAGCAGGAGGATCGGAGTCACCTAGTGCAG” stands 13400 fluorescence intensity (a.u.). Turning to “TACGTGCATTTACTTAATCCTTATTTTTTTTATCACTTCCCGGAGTCACCTAGTGCAG”, the binding signal was 9830 fluorescence intensity (a.u.).

Regarding “TTGCCAGTTCTGTTCTGTTTCTTCTTGGCGACGGGTTGCCCGGAGTCACCTAGTGCAG”, the binding signal is 11200 fluorescence intensity (a.u.). On to “CCCATGTCCCTGGTAAAACATTCCCTGACCACCTGCTCCACGGAGTCACCTAGTGCAG”, for which the binding signal is 9270 fluorescence intensity (a.u.). On to “CAAATGAAGGCTACATGGGCGGGTGTTCGGTAGTCAAGATCGGAGTCACCTAGTGCAG”, for which the binding signal was 11400 fluorescence intensity (a.u.). As for “GTGTTGAGATTTAATCTGTTTCATGAATTCTTCTGTTTTGCGGAGTCACCTAGTGCAG”, the binding signal is 8820 fluorescence intensity (a.u.). With “ACTTCTCGCTTCCGCTCCACGCCTCGCTGCCTGCCGCTCCCGGAGTCACCTAGTGCAG”, the binding signal was 10900 fluorescence intensity (a.u.). Regarding “CGAACAAATCCCTATCCTGCATACCGCCATCGTCTCTTTCCGGAGTCACCTAGTGCAG”, the binding signal is 9950 fluorescence intensity (a.u.). Under “CTCCTCCCAGAAACCGCACGTGCTGCCGCCCTATCCGATGCGGAGTCACCTAGTGCAG” stands 9630 fluorescence intensity (a.u.); under “ACATGTGCATGAGTGCATCTGCATTTTCCTCCGTGCTTATCGGAGTCACCTAGTGCAG”, 8540 fluorescence intensity (a.u.); under “GCCACTACTCAACTCCCTTTGCCGTGTCCGTTGCCGTGTTCGGAGTCACCTAGTGCAG”, 12000 fluorescence intensity (a.u.). Regarding “ACCTGACCAAATACTACTCACGAATGGTATCTCTGGTTTTCGGAGTCACCTAGTGCAG”, the binding signal is 8830 fluorescence intensity (a.u.). For the sequence “ATCCCACCACCTCGGCCTCACTGAGATCTCCGACTCCGATCGGAGTCACCTAGTGCAG”, the binding signal is 10400 fluorescence intensity (a.u.).

(Values after publication PMC7819943, “Rice protein-binding microarrays: a tool to detect cis-acting elements near promoter regions in rice”.)
